Assay results reported in the supplement of paper PMC3334620.
Over roughly 33,000 sequences, “E-score (-0.5 to 0.5)” has its median near -8e-05; the highest 2% begin near 0.23. The list shows a part of the results.

molecular target: T1, Nrg2 (UniProt P38082); assay: PBM E-score (8-mer binding enrichment) (E-score (-0.5 to 0.5)); higher = stronger / more preferred TF binding; settings: protein concentration: 100 nM; construct: GST-full length
T1 sequence: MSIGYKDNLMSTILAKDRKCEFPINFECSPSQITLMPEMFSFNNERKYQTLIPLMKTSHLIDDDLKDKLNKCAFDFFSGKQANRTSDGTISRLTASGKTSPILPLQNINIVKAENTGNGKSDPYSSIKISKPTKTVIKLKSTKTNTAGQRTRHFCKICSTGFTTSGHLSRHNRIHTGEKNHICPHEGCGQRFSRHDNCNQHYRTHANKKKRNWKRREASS
In short: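 PURExpress in vitro transcription/translation supplied GST-tagged yeast transcription factors, either full-length or DNA-binding domain. Applied at about 100-200 nM to universal all-10-mer Agilent arrays double-stranded by primer extension, the bound protein was detected with fluorescent anti-GST. E-scores, modified Wilcoxon-Mann-Whitney statistics, were given by the Universal PBM Analysis Suite to ungapped eight-base words pooled with their reverse complements after masliner normalisation.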

Sequence	PBM E-score
AGAAAAGG	0.0545
GCTAATAA	0.103
ACCGTAGG	-0.28
CACCCCTG	-0.0851
CAGGCAGG	-0.111
AATCGTCA	0.131
GCCCGCGC	0.156
CGGCGACG	-0.0744
CGCGTTAA	0.1
CCTATCCG	-0.087
AATCGTGA	-0.154
CCTGTACG	-0.0944
AGTGTCGG	-0.0219
CACGTCGG	-0.0592
CAATCGGA	0.181
GACGTATA	-0.135
ACGTCAGT	-0.122
CACGCCAA	-0.0877
ATAAAAGC	-0.0139
GATGAGGC	-0.121
TTACCAAA	0.00847
AGTGGTTC	-0.0506
CCATATAA	0.118
AGCGTGCG	0.031
CCGCCCTA	-0.172

Sequence	PBM E-score
CATTTAGC	-0.102
GTAGAAGA	-0.164
AATACGAA	0.0961
CACAACCC	0.0202
AACAGCTA	0.101
GAAGAGAC	-0.0499
GCAAAGGC	-0.141
CACATAAG	0.0356
ATTAGAAA	0.0627
AGTATACT	-0.169
CACCGGGA	-0.203
GAGCGTAA	0.049
AGCCAACT	-0.124
ACGCCGAT	-0.0002
AACTGATT	-0.0472
GGAAGACC	-0.163
CCGTTACG	-0.188
GACGAGTC	-0.0895
AGCGTAAC	0.00113
AAAGTTGG	0.132
AAAATGAT	0.222
GGTGCCAC	-0.207
TAATGATA	0.243
CGCTGCGA	0.0021
ACGCTCTA	-0.258

Shown field by field: part of the list above
GAAGAGAC
  PBM E-score: -0.0499
GCAAAGGC
  PBM E-score: -0.141

Next records

Sequence	PBM E-score
CTTTCCCA	-0.104
AGTGGGTC	-0.175
CTCCGTCA	-0.153
AGCGCAAG	0.0342
CTCAATCA	0.0928
CCTGGCCC	0.12
AGGCACCT	-0.177
AATCTGCT	-0.0883
AGGTTGCC	-0.0813
ACGTAACG	-0.111
CTAAGTAA	0.0717
GACCGTGA	-0.0508
CACCCATC	-0.0202
AAAGCAAA	0.102
CAATTAAG	-0.0123
AAACAGGT	-0.0166
AGCTGTTC	-0.075
CTGTGGCC	-0.12
AAGTTCAA	0.134
AATCTCCC	-0.0515
AATCAGGT	0.135
TCAACTCA	-0.0189
GAGCCAAA	0.0628
AGCTACCA	-0.0448
CTATAAAG	-0.105

Sequence	PBM E-score
GATTTGCC	0.0874
CCCTTTGA	-0.0356
GCAGCCCA	-0.0737
AAACCTAG	-0.00692
GCCGCACA	-0.0789
ATATAACC	0.145
AAAATATA	0.00189
AGTTTGGA	-0.00777
ATGCAAGG	-0.0933
GCCAGGAC	-0.0334
TAGGGACA	0.0336
AAGAAGGG	-0.0449
GGAAGAAA	-0.00468
ACGCACGG	0.123
CAGGTGCC	-0.151
GACTCATC	-0.166
ATTCGGTA	0.074
AGATGGAC	-0.0062
GTCGATAA	-0.0484
ATGGGGGA	-0.356
CAACTTGA	0.191
AAAGAAGT	-0.00026
ACTGAGCA	-0.0638
GAAGATTA	0.0238
AACGAATT	0.189

5 records drawn at random from those above, as already listed:
Sequence	PBM E-score
ATGGGGGA	-0.356
ATTCGGTA	0.074
ATATAACC	0.145
ACTGAGCA	-0.0638
GTCGATAA	-0.0484

Continued:

Sequence	PBM E-score
TCATCACA	-0.0979
CCAACAAA	0.023
ACACAGCT	-0.0102
TAGGTGCA	-0.0534
ACAGGAAG	0.0432
GAAGAACA	0.155
AAACCTAA	0.0731
CCCAGCAA	0.0725
GCTAACCC	-0.0512
GTCAAGGA	-0.209
ATAGCTAG	-0.0688
CGAGAGGA	0.0593
CGACGGTA	0.0706
CATTGCAG	0.0963
GATTTCTA	0.0626
CCAGAGAC	-0.0459
AGTTGACC	0.115
ACGAATGG	0.168
AATGCGCT	0.023
CGCAACCA	0.162
CTTTGGGC	-0.0143
CAACGCTA	-0.0189
GATGTAGA	-0.0926
GGCACCAA	-0.0112
ATTCGGAC	0.118

Sequence	PBM E-score
ATCGGTCG	-0.007
AACGCAAC	0.154
ACTAATAT	0.211
GTAAATGA	0.114
AAAGCTCG	-0.0298
GGTCTACA	-0.0592
AATTACAT	0.101
CGGGACAA	-0.11
CAGATGGC	-0.107
CATATGGC	-0.00136
ACATGAAA	-0.0252
GTTGGTGA	0.158
ATTTGAGG	-0.111
GGTCACTA	-0.0723
CAGGGAAC	0.0728
AATTCAGT	-0.0207
AATACGCT	-0.00046
AAGAACCA	0.0577
AAATGTGC	0.205
GGCTCCGA	-0.138
TGCGACCA	0.0981
CCGTGTGA	-0.0736
CGTGCAGA	-0.114
CATTCGAG	0.0694
AATTAAGG	0.0995

Sequence	PBM E-score
TCTCGGAA	0.0924
AGCCAAAG	-0.155
GGAGAAAC	-0.0128
TCACCGGA	-0.114
CCCCTTTC	-0.112
CCCCACAC	0.0348
CAAGAGAC	-0.117
ATCGCTGA	0.102
CGCGGCGC	0.115
ACATAGAT	0.0214
ATGTGATG	-0.111
ATCAAAGC	0.0951
ACAGCTGT	0.196
TAGCTACA	0.0824
TAGCGAAA	0.0316
TCGGCCGA	0.12
AGCCCAGG	-0.243
GACTTGTA	-0.227
TCCAGACA	-0.0642
AACTGAGT	0.00985
CCTCCTCA	-0.281
AATGGTAT	0.0683
